Results as given in PMC10665399.
No constants are given. Whether binding was seen depends on the method and setting. In cells and extracts the contact can be indirect. Some results given as binding are weak or reduced against the parent protein; the word gives no strength.

Sequences of proteins named here, by UniProt entry; tags and fusion partners are left off.
UniProt Q9H7E9: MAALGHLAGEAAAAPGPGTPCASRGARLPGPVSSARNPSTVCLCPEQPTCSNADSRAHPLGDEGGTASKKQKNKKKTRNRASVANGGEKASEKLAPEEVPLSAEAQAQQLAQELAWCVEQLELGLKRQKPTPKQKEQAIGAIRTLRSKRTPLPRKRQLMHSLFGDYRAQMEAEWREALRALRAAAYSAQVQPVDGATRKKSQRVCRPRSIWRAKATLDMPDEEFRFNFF
UniProt Q92879: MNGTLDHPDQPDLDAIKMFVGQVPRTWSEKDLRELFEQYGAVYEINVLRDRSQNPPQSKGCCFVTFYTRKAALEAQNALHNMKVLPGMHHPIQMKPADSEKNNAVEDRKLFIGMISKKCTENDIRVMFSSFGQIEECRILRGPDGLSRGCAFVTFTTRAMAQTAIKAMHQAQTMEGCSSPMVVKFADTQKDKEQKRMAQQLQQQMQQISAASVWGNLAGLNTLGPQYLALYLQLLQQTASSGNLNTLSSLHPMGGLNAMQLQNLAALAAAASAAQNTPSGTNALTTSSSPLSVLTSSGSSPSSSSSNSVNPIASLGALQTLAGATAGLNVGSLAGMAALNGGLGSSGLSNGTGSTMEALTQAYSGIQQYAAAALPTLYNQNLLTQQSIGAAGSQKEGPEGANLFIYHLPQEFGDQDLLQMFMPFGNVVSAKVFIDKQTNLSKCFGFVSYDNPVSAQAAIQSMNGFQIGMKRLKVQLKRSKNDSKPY

T1: RNA binding motif protein 42 (RBM42), endogenous (human) (UniProt Q9BTD8)
T1 sequence: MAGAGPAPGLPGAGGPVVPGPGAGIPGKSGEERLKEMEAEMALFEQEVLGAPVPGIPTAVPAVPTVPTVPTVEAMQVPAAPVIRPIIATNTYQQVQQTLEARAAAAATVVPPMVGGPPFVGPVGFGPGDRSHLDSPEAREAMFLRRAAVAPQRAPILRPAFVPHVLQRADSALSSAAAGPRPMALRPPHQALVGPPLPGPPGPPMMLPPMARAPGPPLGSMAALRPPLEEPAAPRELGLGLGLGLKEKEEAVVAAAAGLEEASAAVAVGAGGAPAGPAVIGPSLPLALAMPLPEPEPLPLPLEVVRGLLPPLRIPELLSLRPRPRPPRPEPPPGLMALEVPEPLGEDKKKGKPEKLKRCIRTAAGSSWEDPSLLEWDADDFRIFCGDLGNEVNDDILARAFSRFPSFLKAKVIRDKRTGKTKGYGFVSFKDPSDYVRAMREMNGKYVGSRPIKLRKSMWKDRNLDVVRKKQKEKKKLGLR

B1: LSM4 (protein, UniProt Q9Y4Z0 1-139)
chain: MLPLSLLKTAQNHPMLVELKNGETYNGHLVSCDNWMNINLREVICTSRDGDKFWRMPECYIRGSTIKYLRIPDEIIDMVKEEVVAKGRGRGGLQQQKQQKGRGMGGAGRGVFGGRGRGGIPGTGRGQPEKKPGRQAGKQ

Assays:
[1] = target: T1, RNA binding motif protein 42 (RBM42), endogenous (human); assay: co-IP; immunoprecipitation of RBM42 with selected proximal proteins; set-up in Supplementary Fig. 6d, not shown
[2] = target: T1, RNA binding motif protein 42 (RBM42), endogenous (human); assay: co-IP; endogenous RBM42 precipitated with RBM42 antibody (beads-only as control) from whole-cell lysates of HCT116 cells treated with 10 μM VP16 for 18 h or left untreated; immunoblot

binding [1] | binding [2] | Molecule
binds |  | C8orff33 (from UniProt Q9H7E9 1-229)
 | binds | CUG binding protein 1 (CUGBP1) (from UniProt Q92879 1-486)
binds |  | hnRNP K (from UniProt P61978 1-463)
binds |  | B1
